PubChem BioAssay AID1259424 | University of Nebraska Medical Center – 2018

Screen: 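Find knockdowns that reproduce the expression shifts seen after KSR1 loss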 (primary screen)
Cell system: human HCT116 colon cancer cells
Reagent: siRNA pool against human genes, 50 nM
Measurement: 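Six signature mRNAs by branched-DNA multiplex assay, scaled to two housekeeping genes and non-targeting median, log2; matched to mean KSR1 knockdown profile by Pearson correlation and euclidean distance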
Direction: mean correlation with KSR1 profile: higher = expression change more like KSR1 knockdown; mean distance from KSR1 profile: higher = expression change less like KSR1 knockdown
The whole screen tested about 14,000 reagents; shown is an unselected part. 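Higher correlation or smaller distance means closer resemblance to KSR1 loss; control wells, including KSR1 knockdowns, recur on many plates.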 Further read-outs or replicates are left out here. The record does not give: the time to read-out.

Against QTMAN, the values are mean correlation with KSR1 profile 0.43; mean distance from KSR1 profile 1.82.
After knock-down of RPS2, the screen gave mean correlation with KSR1 profile -0.718; mean distance from KSR1 profile 2.12.
With knock-down of ELK3, the screen gave mean correlation with KSR1 profile -0.678; mean distance from KSR1 profile 2.79.
With knock-down of GZMM the results were mean correlation with KSR1 profile -0.54; mean distance from KSR1 profile 5.27.
Silencing of KRI1 came out at: mean correlation with KSR1 profile -0.33; mean distance from KSR1 profile 2.26.

Quoted from the entries so far, 2 entries:
RPS2 → mean correlation with KSR1 profile: -0.718; mean distance from KSR1 profile: 2.12
ELK3 → mean correlation with KSR1 profile: -0.678; mean distance from KSR1 profile: 2.79

The list goes on:
BRINP2 showed mean correlation with KSR1 profile -0.704; mean distance from KSR1 profile 1.24.
Depletion of WAC gave: mean correlation with KSR1 profile -0.684; mean distance from KSR1 profile 6.46.
SLC22A15 gave mean correlation with KSR1 profile -0.477; mean distance from KSR1 profile 2.79.
NAALAD2 showed mean correlation with KSR1 profile 0.0571; mean distance from KSR1 profile 1.35.
For PLEKHA6 the deposit lists mean correlation with KSR1 profile -0.528; mean distance from KSR1 profile 3.5.
ZFAT gave mean correlation with KSR1 profile -0.32; mean distance from KSR1 profile 1.75.
Against PIK3CD, the entry reads mean correlation with KSR1 profile 0.45; mean distance from KSR1 profile 1.52.
